Test [1] addresses T1, FBXL21 (yeast two-hybrid fusion) (UniProt Q8BFZ4).
T1 sequence: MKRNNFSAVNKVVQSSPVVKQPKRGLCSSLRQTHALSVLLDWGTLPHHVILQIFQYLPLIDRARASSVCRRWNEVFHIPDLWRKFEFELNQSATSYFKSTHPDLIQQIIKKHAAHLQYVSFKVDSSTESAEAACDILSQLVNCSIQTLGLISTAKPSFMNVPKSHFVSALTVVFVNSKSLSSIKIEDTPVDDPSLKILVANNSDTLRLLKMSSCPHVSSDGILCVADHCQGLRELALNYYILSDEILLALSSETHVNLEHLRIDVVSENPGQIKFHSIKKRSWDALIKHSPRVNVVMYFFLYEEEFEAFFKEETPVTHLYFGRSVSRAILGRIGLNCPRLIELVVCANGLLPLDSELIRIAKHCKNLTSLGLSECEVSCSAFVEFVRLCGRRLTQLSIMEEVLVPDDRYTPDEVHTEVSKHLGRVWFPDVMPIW
The test can be described thus: two-hybrid; yeast two-hybrid (Gal4 system) screen and test; which protein was bait is not stated.

The target in test [2] is T2, Flag-FBXL21 (UniProt Q8BFZ4).
T2 sequence: T1 sequence
Briefly: co-IP; HEK 293T cells co-transfected with Flag- and HA-tagged constructs; immunoprecipitation with anti-FLAG (M2) agarose beads; immunoblot with Flag-HRP and HA antibodies. (In general: Immunoblotting shows a protein as a band on a membrane.)

The target in test [3] is T3, FBXL21 (endogenous, mouse gastrocnemius) (mouse (endogenous in gastrocnemius of C57BL/6J mice)) (UniProt Q8BFZ4).
T3 sequence: T1 sequence
The test can be described thus: co-IP; gastrocnemius tissue of WT C57BL/6J mice collected at ZT0 and ZT12; immunoprecipitation with FBXL21 antibody; endogenous proteins.

Results are given in words; binding and its absence hold for the method and conditions named. For part of these data: In cells and extracts the contact can be indirect. Some entries that bind do so weakly or less than the wild type. For part of these data: Where a sequence is shown, tags or fusion partners need not be part of it.

B1: Myozenin1 (MYOZ1) (yeast two-hybrid fusion) (protein, UniProt Q9JK37 1-296)
chain: MPLSGTPAPNKRRKSSKLIMELTGGGRESSGLNLGKKISVPRDVMLEELSLLTNRGSKMFKLRQMRVEKFIYENHPDVFSDSSMDHFQKFLPTVGGQLETAGQGFSYGKGSSGGQAGSSGSAGQYGSDRHQQGSGFGAGGSGGPGGQAGGGGAPGTVGLGEPGSGDQAGGDGKHVTVFKTYISPWDRAMGVDPQQKVELGIDLLAYGAKAELPKYKSFNRTAMPYGGYEKASKRMTFQMPKFDLGPLLSEPLVLYNQNLSNRPSFNRTPIPWLSSGEHVDYNVDVGIPLDGETEEL
In the case of B1, the binding result in test [1] is listed as “binds”.

B2: HA-MYOZ1 (protein, UniProt Q9JK37 1-296)
chain: B1 chain
Regarding B2, the binding result in test [2] is given as “binds”.

B3: MYOZ1 (endogenous, mouse gastrocnemius) (protein, UniProt Q9JK37 1-296)
chain: B1 chain
On to B3, for which, in test [3], the binding result is listed as “binds”.

The values above are taken from article PMC9829178.
